Reference: PubChem BioAssay AID1751 (National Center for Advancing Translational Sciences (NCATS), 2009)
The inconclusive results got no clear call from the source; some entries with a clear call stand among them for comparison. Potencies beside an inconclusive call are fits to weak or partial responses and may not hold up. The source made the active and inactive calls. Calls come from the whole dose curve; as a rule, active = well fitted activation curve with a large enough effect; inconclusive = small, poorly fitted or top-dose-only effect; inactive = no such curve, though single readings can be large or run the other way.

Sequences of proteins named here, by UniProt entry; tags and fusion partners are left off.
UniProt P14618, whole entry, looked up: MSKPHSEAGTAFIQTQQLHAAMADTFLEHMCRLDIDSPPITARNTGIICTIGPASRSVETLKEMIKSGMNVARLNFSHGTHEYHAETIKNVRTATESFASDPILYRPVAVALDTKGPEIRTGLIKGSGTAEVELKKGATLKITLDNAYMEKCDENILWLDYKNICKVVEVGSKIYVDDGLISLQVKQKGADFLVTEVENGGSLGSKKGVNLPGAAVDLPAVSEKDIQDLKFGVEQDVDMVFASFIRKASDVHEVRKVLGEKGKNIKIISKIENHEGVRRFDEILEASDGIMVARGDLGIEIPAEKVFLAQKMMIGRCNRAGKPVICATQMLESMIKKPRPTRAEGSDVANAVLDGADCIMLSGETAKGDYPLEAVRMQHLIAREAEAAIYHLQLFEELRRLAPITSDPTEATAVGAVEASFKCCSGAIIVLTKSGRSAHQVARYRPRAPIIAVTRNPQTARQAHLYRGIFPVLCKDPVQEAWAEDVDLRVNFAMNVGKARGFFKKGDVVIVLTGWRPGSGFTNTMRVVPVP

These compounds were tested against Pyruvate kinase PKM (Homo sapiens) (UniProt P14618) (assay: Confirmation Concentration-Response Assay for Activators of Human Muscle isoform 2 Pyruvate Kinase). Details: purified hPK-M2, Kinase-Glo ATP luminescence, 1 h; series mostly up to 57.5 µM.
Source text: NIH Chemical Genomics Center [NCGC] Matthew G. Vander Heiden, M.D., Ph.D. [Harvard Medical School, 77 Avenue Louis Pasteur, Boston, MA 02115] MLPCN Grant: 1 R03 MH085679-01 NCGC Assay Overview: Human pyruvate kinase muscle 2 (hPK-M2) enzyme was supplied as a highly purified (>95% pure) preparation from Harvard Medical School and assayed for its ability to generate ATP from ADP using phosphoenolpyruvate (PEP) as a substrate. ATP generation was detected in a coupled reaction by luciferase-mediated luminescence, an ATP-dependent process. Pyruvate kinase substrates, PEP and ADP, were present in the assay at Km and approximately 10-fold below Km respectively. The enzyme was assayed at an intermediate level of activity to screen for both inhibitors and activators.
NCGC Assay Protocol Summary: Three uL of substrate mix (at r.t.) in assay buffer (50 mM Imidazole pH7.2, 50 mM KCl, 7 mM MgCl2, 0.01% Tween 20, 0.05% BSA) was dispensed into white solid bottom 1,536 well microtiter plates so that the final concentrations of substrates in the assay were 0.1 mM ADP and 0.5 mM PEP. 23 nL of compound were delivered by a pin tool and 1 uL of enzyme mix (final concentration of 0.1 nM) in assay buffer (4 degree Celsius) was added. Plates were incubated at room temperature for 1 hour. Two uL of detection mix (Kinase-Glo, Promega; at 4 degree Celsius protected from light) was added and luminescence read by a ViewLux (Perkin Elmer) at 1 second exposure/plate. Data were normalized to the uninhibited (column 3) and AC100 inhibition (no enzyme in column 2). To monitor activation, the first column contained a titration of the activator, NCGC00031955-03 (16-point 1:2 dilutions in duplicate starting at 57 uM) and the first 16 rows of column 4 contained 57 uM of NCGC00031955-03.

| Structure (SMILES) | Potency |
| --- | --- |
| COc1ccc(Cn2ncc3c4sc(C)cc4n(C)c3c2=O)cc1 | active: 20.1 nM |
| N#Cc1ccc(S(=O)(=O)N2CCN(S(=O)(=O)c3ccc4c(c3)OCCO4)CC2)cc1 | inconclusive: 7.1 nM [rising, full curve, poor fit] |
| Cc1cc2c(s1)c1cnn(Cc3c(F)c(F)cc(F)c3F)c(=O)c1n2C | inconclusive: 253 nM [rising, full curve] |
| O=S(=O)(c1cccc(C(F)(F)F)c1)N1CCN(S(=O)(=O)c2ccc3c(c2)OCCO3)CC1 | inconclusive: 113 nM [rising, full curve] |
| CCOC(=O)CSc1nc2cc(OC)ccc2cc1C#N | inactive |
| CCCCCn1ncc2c3sc(C)cc3n(C)c2c1=O | inconclusive: 22500 nM [rising, partial curve] |
| COC(=O)CSC1=NS(=O)(=O)c2ccccc21 | inactive |
| CCN1CCc2c(sc(NC(=S)NC(=O)c3ccccc3)c2C#N)C1 | inactive |
| Cc1cc2[nH]c3c(=O)n(Cc4ccccc4F)ncc3c2s1 | inconclusive: 160 nM [rising, full curve] |
| O=S(=O)(/N=C(/Sc1ccccc1)c1ccccc1)c1ccccc1 | inactive |
| Cc1cc2c(s1)c1cnn(-c3ccccc3)c(=O)c1n2C | inconclusive: 25300 nM [rising, partial curve, poor fit] |
| Cc1cc2c(s1)c1cnn(Cc3ccc(-c4ccccc4)cc3)c(=O)c1n2C | inconclusive: 14200 nM [rising, full curve, poor fit] |
| O=C(c1c(F)cccc1F)N1CCN(S(=O)(=O)c2ccc3c(c2)OCCO3)CC1 | inconclusive: 71300 nM [rising, partial curve, poor fit] |
| Cc1ccc(NS(=O)(=O)c2ccc3c(c2)CCC(=O)N3)cc1C | active: 163 nM |

Some of the entries so far, with tabs:
Structure (SMILES)	Potency
N#Cc1ccc(S(=O)(=O)N2CCN(S(=O)(=O)c3ccc4c(c3)OCCO4)CC2)cc1	inconclusive: 7.1 nM [rising, full curve, poor fit]
Cc1cc2c(s1)c1cnn(Cc3c(F)c(F)cc(F)c3F)c(=O)c1n2C	inconclusive: 253 nM [rising, full curve]
O=S(=O)(c1cccc(C(F)(F)F)c1)N1CCN(S(=O)(=O)c2ccc3c(c2)OCCO3)CC1	inconclusive: 113 nM [rising, full curve]
